Assay results as given in PMC3008709.

Target: T1, full-length human IKKβ (Inhibitor of NFκB Kinase β subunit), non-epitope-tagged (human) (UniProt O14920)
T1 sequence: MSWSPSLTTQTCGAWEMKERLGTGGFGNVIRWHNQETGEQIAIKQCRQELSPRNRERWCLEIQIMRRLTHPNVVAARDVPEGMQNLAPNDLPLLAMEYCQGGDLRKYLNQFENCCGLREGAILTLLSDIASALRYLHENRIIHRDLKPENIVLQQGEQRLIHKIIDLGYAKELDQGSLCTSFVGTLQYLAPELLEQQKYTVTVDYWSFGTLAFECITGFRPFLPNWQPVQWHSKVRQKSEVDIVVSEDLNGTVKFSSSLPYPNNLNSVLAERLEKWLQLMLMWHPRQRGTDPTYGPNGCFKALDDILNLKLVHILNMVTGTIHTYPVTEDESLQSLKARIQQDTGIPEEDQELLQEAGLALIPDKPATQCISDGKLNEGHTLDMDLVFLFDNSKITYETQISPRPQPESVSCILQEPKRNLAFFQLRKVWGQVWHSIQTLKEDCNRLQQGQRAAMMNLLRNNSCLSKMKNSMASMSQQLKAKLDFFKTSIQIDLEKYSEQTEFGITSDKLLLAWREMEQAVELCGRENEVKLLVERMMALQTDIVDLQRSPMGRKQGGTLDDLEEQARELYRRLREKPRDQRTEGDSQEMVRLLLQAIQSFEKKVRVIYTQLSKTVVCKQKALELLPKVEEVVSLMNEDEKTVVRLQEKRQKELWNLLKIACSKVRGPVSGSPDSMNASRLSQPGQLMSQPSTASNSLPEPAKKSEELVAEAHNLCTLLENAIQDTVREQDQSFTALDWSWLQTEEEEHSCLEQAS
Assay: affinity purification with mass spectrometry; HEK293 cells transfected with FGFR4-K645E and IKKβ; IKKβ (H-4) immune complexes on Protein A-sepharose, trypsinized in 2 M urea; IMAC/nano-LC/ESI-MS; two independent samples

Question: “full-length constitutively active FGFR4-K645E (receptor)” was tested. Which binding did it give?
Answer: binds

No constants are given. Whether binding was seen depends on the method and setting. In cells and extracts the contact can be indirect. These calls come from enrichment with a bait or labelling near it, and not all partners need be listed. Where a sequence is shown, tags or fusion partners need not be part of it.
